Results as given in patent publication USRE37952.
These are yes or no findings as the source states them, for the method shown. Some binding calls cover weakened binding; strength is not graded here.

Biological target: T1, hSOS1 Peptide (human)
T1 sequence (peptide): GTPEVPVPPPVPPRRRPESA
Test: biotinylated GST fusion (4 µg/ml) on peptide spotted on nitrocellulose

binding: binds
Substance: biotinylated GST-Grb2 fusion protein (from UniProt P08515 1-218; P62993 1-217)
